Reference: PubChem BioAssay AID1347076 (National Center for Advancing Translational Sciences (NCATS), 2019)
Screen size: about 400,000 compounds; about 13,000 (3.2%) were called active. Inconclusive results, whose numbers are uncertain, are shown with a selection of clear calls. The call rests on the fitted dose curve; in most records, active means well fitted cell-killing curve with a large enough effect; inconclusive means small, poorly fitted or top-dose-only effect, or effect the other way; inactive means flat fitted curve, though single readings scatter. Where the call is inconclusive, the potency comes from a doubtful curve fit.

Assay: qHTS assay for MDR1-selective chemotherapeutics: Primary screen using the drug-selected MDR subline cells KB-V1; further: nearly all actives have a fitted effect of over 60% in size
Settings: KB-V1 MDR cells viability, CellTiter-Glo, 72 h; series mostly up to 46.1 µM
In short: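 KB-V1, DMEM (no phenol red) + 10% FBS; cpd pin-transferred, titration series; 72 h, 37 degrees C; CellTiter-Glo, luminescence. Data normalized, curve-fit.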
Potency means the concentration at half of the fitted maximal effect.

Compound	Potency
CC(OC(=O)[C@@H](NC(=O)OCc1ccccc1)C(C)C)C(=O)Nc1ccc(N2CCOCC2)cc1 (some centres not stated)	inconclusive: 29.1 µM [cytotoxic, single point]
COc1ccc(C2C(C(=O)Nc3cccnc3)=C(C)Nc3nc(SCc4ccccc4)nn32)cc1 (configuration not stated)	inconclusive: 23.1 µM [rising, partial curve]
Cc1ccc(C)c(NC(=O)C2CCCN2S(=O)(=O)c2ccc3c(c2)n(C)c(=O)c(=O)n3C)c1 (configuration not stated)	inconclusive: 2.59 µM [rising, full curve, poor fit]
COC(=O)C1=C(C)N=C2SC(C#N)=C(N)N2C1c1ccc(OC)cc1 (configuration not stated)	inactive
CCOC(=O)N1CCN(c2ncc3c(n2)CC(c2ccc(Cl)cc2)CC3=O)CC1 (configuration not stated)	active: 16.4 µM
COCCCNC(=O)C[C@H]1C[C@H](C(=O)N(C(C)C)C(C)C)[C@@]2(C)c3[nH]c4cc(CCC(=O)N(C)C)ccc4c3CCN2C1=O	inconclusive: 3.66 µM [rising, partial curve, poor fit]
O=C(NCc1ccc(F)cc1)c1nnc(Cc2cccc(F)c2)o1	inactive
COc1ccc(CCC(=O)N2c3ccccc3N=C(c3ccc(C(F)(F)F)cc3)C2C(=O)NC2CCCC2)cc1 (configuration not stated)	inconclusive: 5.17 µM [cytotoxic, partial curve]
O=C(Nc1cccc2ccccc12)c1ccc([N+](=O)[O-])s1	inactive
COc1cc(-c2noc(-c3ccc(NC4CCCC4)c([N+](=O)[O-])c3)n2)cc(OC)c1OC	inactive
COc1ccc(O)c(C(=O)c2cnc3c(c2)c(=O)[nH]c(=O)n3C)c1	inconclusive: 23.1 µM [cytotoxic, single point]
CC(=O)NC1C(=O)N=C(SCc2ccccc2)NC1=O (configuration not stated)	inconclusive: 20.6 µM [rising, partial curve, poor fit]
O=C(O)c1ccccc1S(=O)(=O)c1ccccc1CO	inconclusive: 20.6 µM [rising, single point]
O=C1C(C2=NC(c3ccccn3)C3C(=O)N(c4ccc(Cl)cc4Cl)C(=O)C23)=C(O)c2ccccc21 (configuration not stated)	inconclusive: 4.11 µM [cytotoxic, full curve]
COCC(C)n1c(C)cc(C(=O)CSc2nnc(Nc3ccccc3F)s2)c1C (configuration not stated)	inconclusive: 32.6 µM [cytotoxic, single point]
CC(=O)Nc1ccc(-c2ccnc3c2CC(C)(C(=O)Nc2ccc4c(c2)OCO4)O3)cc1 (configuration not stated)	inactive
O=C(CN1CCN(C2CCCCC2)CC1)Nc1ccccc1N1CCCCC1	inconclusive: 8.2 µM [cytotoxic, partial curve, poor fit]

Quoted from the listing:
Potency with CCOC(=O)N1CCN(c2ncc3c(n2)CC(c2ccc(Cl)cc2)CC3=O)CC1 (configuration not stated) reads active: 16.4 µM
Potency with CC(=O)Nc1ccc(-c2ccnc3c2CC(C)(C(=O)Nc2ccc4c(c2)OCO4)O3)cc1 (configuration not stated) reads inactive
